# Reference: the supplement of paper PMC8728848
# The list shows a part of the results.
# Columns and labels:
# Experiment in all cases: glycan array binding signal (z-score within array); higher = stronger binding
# Conditions in all cases: glycan notation: IUPAC condensed, linker removed
# [1] = target: Neu5Ac(a2-6)Gal
# Summary of the method: (§1)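 The binding signal is a Z-score computed within each array and averaged over linkers. Arrays of the same protein sequence at different concentrations or buffers were also averaged together. Data originate from 3228 arrays in the Consortium for Functional Glycomics database, kept only where the protein sequence was available.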
# [2] = target: Neu5Ac(a2-6)Gal(b1-3)GlcNAc(b1-3)[Gal(b1-4)GlcNAc(b1-6)]Gal(b1-4)Glc
# Summary of the method: as §1
# [3] = target: Neu5Ac(a2-6)Gal(b1-4)Glc
# Summary of the method: as §1
# [4] = target: Neu5Ac(a2-6)Gal(b1-4)GlcNAc
# Summary of the method: as §1
# [5] = target: Neu5Ac(a2-6)Gal(b1-4)GlcNAc(b1-2)Man
# Summary of the method: as §1
# [6] = target: Neu5Ac(a2-6)Gal(b1-4)GlcNAc(b1-2)Man(a1-3)Man(b1-4)GlcNAc(b1-4)GlcNAc
# Summary of the method: as §1
# [7] = target: Neu5Ac(a2-6)Gal(b1-4)GlcNAc(b1-2)Man(a1-3)[Gal(b1-4)GlcNAc(b1-2)Man(a1-6)]Man(b1-4)GlcNAc(b1-4)GlcNAc
# Summary of the method: as §1
# [8] = target: Neu5Ac(a2-6)Gal(b1-4)GlcNAc(b1-2)Man(a1-3)[GlcNAc(b1-2)Man(a1-6)]Man(b1-4)GlcNAc(b1-4)GlcNAc
# Summary of the method: as §1
# [9] = target: Neu5Ac(a2-6)Gal(b1-4)GlcNAc(b1-2)Man(a1-3)[GlcNAc(b1-4)][Neu5Ac(a2-6)Gal(b1-4)GlcNAc(b1-2)Man(a1-6)]Man(b1-4)GlcNAc(b1-4)GlcNAc
# Summary of the method: as §1
# [10] = target: Neu5Ac(a2-6)Gal(b1-4)GlcNAc(b1-2)Man(a1-3)[Man(a1-6)]Man(b1-4)GlcNAc(b1-4)GlcNAc
# Summary of the method: as §1
# [11] = target: Neu5Ac(a2-6)Gal(b1-4)GlcNAc(b1-2)Man(a1-3)[Neu5Ac(a2-3)Gal(b1-4)GlcNAc(b1-2)Man(a1-6)]Man(b1-4)GlcNAc(b1-4)GlcNAc
# Summary of the method: as §1
# [12] = target: Neu5Ac(a2-6)Gal(b1-4)GlcNAc(b1-2)Man(a1-3)[Neu5Ac(a2-6)Gal(b1-4)GlcNAc(b1-2)Man(a1-6)]Man(b1-4)GlcNAc(b1-4)GlcNAc
# Summary of the method: as §1
# [13] = target: Neu5Ac(a2-6)Gal(b1-4)GlcNAc(b1-2)Man(a1-3)[Neu5Ac(a2-6)Gal(b1-4)GlcNAc(b1-2)Man(a1-6)]Man(b1-4)GlcNAc(b1-4)[Fuc(a1-6)]GlcNAc
# Summary of the method: as §1
# [14] = target: Neu5Ac(a2-6)Gal(b1-4)GlcNAc(b1-2)Man(a1-6)Man(b1-4)GlcNAc(b1-4)GlcNAc
# Summary of the method: as §1
# [15] = target: Neu5Ac(a2-6)Gal(b1-4)GlcNAc(b1-2)Man(a1-6)[Gal(b1-4)GlcNAc(b1-2)Man(a1-3)]Man(b1-4)GlcNAc(b1-4)GlcNAc
# Summary of the method: as §1
# [16] = target: Neu5Ac(a2-6)Gal(b1-4)GlcNAc(b1-2)Man(a1-6)[GlcNAc(b1-2)Man(a1-3)]Man(b1-4)GlcNAc(b1-4)GlcNAc
# Summary of the method: as §1
# [17] = target: Neu5Ac(a2-6)Gal(b1-4)GlcNAc(b1-2)Man(a1-6)[Man(a1-3)]Man(b1-4)GlcNAc(b1-4)GlcNAc
# Summary of the method: as §1
# [18] = target: Neu5Ac(a2-6)Gal(b1-4)GlcNAc(b1-2)[Neu5Ac(a2-6)Gal(b1-4)GlcNAc(b1-4)]Man(a1-3)[GlcNAc(b1-4)][Neu5Ac(a2-6)Gal(b1-4)GlcNAc(b1-2)[Neu5Ac(a2-6)Gal(b1-4)GlcNAc(b1-6)]Man(a1-6)]Man(b1-4)GlcNAc(b1-4)GlcNAc
# Summary of the method: as §1
# [19] = target: Neu5Ac(a2-6)Gal(b1-4)GlcNAc(b1-2)[Neu5Ac(a2-6)Gal(b1-4)GlcNAc(b1-4)]Man(a1-3)[GlcNAc(b1-4)][Neu5Ac(a2-6)Gal(b1-4)GlcNAc(b1-4)Man(a1-6)]Man(b1-4)GlcNAc(b1-4)GlcNAc
# Summary of the method: as §1
# [20] = target: Neu5Ac(a2-6)Gal(b1-4)GlcNAc(b1-2)[Neu5Ac(a2-6)Gal(b1-4)GlcNAc(b1-6)]Man(a1-6)[Neu5Ac(a2-6)Gal(b1-4)GlcNAc(b1-2)Man(a1-3)][GlcNAc(b1-4)]Man(b1-4)GlcNAc(b1-4)GlcNAc
# Summary of the method: as §1
# [21] = target: Neu5Ac(a2-6)Gal(b1-4)GlcNAc(b1-3)Gal(b1-3)GlcNAc
# Summary of the method: as §1
# [22] = target: Neu5Ac(a2-6)Gal(b1-4)GlcNAc(b1-3)Gal(b1-4)GlcNAc
# Summary of the method: as §1
# [23] = target: Neu5Ac(a2-6)Gal(b1-4)GlcNAc(b1-3)Gal(b1-4)GlcNAc(b1-2)Man(a1-3)[Neu5Ac(a2-6)Gal(b1-4)GlcNAc(b1-3)Gal(b1-4)GlcNAc(b1-2)Man(a1-6)]GalNAc
# Summary of the method: as §1
# [24] = target: Neu5Ac(a2-6)Gal(b1-4)GlcNAc(b1-3)Gal(b1-4)GlcNAc(b1-3)Gal(b1-4)GlcNAc
# Summary of the method: as §1
# [25] = target: Neu5Ac(a2-6)Gal(b1-4)GlcNAc(b1-3)Gal(b1-4)GlcNAc(b1-3)Gal(b1-4)GlcNAc(b1-2)Man(a1-3)[Neu5Ac(a2-6)Gal(b1-4)GlcNAc(b1-3)Gal(b1-4)GlcNAc(b1-3)Gal(b1-4)GlcNAc(b1-2)Man(a1-6)]GalNAc
# Summary of the method: as §1
# [26] = target: Neu5Ac(a2-6)Gal(b1-4)GlcNAc(b1-3)Gal(b1-4)GlcNAc(b1-3)GalNAc
# Summary of the method: as §1
# [27] = target: Neu5Ac(a2-6)Gal(b1-4)GlcNAc(b1-3)Gal(b1-4)GlcNAc(b1-3)[Neu5Ac(a2-6)Gal(b1-4)GlcNAc(b1-3)Gal(b1-4)GlcNAc(b1-6)]GalNAc
# Summary of the method: as §1
# [28] = target: Neu5Ac(a2-6)Gal(b1-4)GlcNAc(b1-3)Gal(b1-4)GlcNAc(b1-6)[Gal(b1-3)]GalNAc
# Summary of the method: as §1
# [29] = target: Neu5Ac(a2-6)Gal(b1-4)GlcNAc(b1-3)Gal(b1-4)[Fuc(a1-3)]GlcNAc(b1-3)Gal(b1-4)[Fuc(a1-3)]GlcNAc
# Summary of the method: as §1
# [30] = target: Neu5Ac(a2-6)Gal(b1-4)GlcNAc(b1-3)GalNAc
# Summary of the method: as §1
# [31] = target: Neu5Ac(a2-6)Gal(b1-4)GlcNAc(b1-3)[Neu5Ac(a2-6)Gal(b1-4)GlcNAc(b1-6)]GalNAc
# Summary of the method: as §1
# [32] = target: Neu5Ac(a2-6)Gal(b1-4)GlcNAc(b1-6)GalNAc
# Summary of the method: as §1
# [33] = target: Neu5Ac(a2-6)Gal(b1-4)GlcNAc(b1-6)[Gal(b1-3)GlcNAc(b1-3)]Gal(b1-4)Glc
# Summary of the method: as §1
# [34] = target: Neu5Ac(a2-6)Gal(b1-4)GlcNAc(b1-6)[Gal(b1-3)]GalNAc
# Summary of the method: as §1
# [35] = target: Neu5Ac(a2-6)Gal(b1-4)GlcNAc6S
# Summary of the method: as §1
# [36] = target: Neu5Ac(a2-6)GalNAc
# Summary of the method: as §1
# [37] = target: Neu5Ac(a2-6)GalNAc(b1-4)GlcNAc
# Summary of the method: as §1
# [38] = target: Neu5Ac(a2-6)GalNAc(b1-4)GlcNAc6S
# Summary of the method: as §1
binder,measurement,setting,value
Epa19 (Candida glabrata) (protein) MGSSHHHHHHSSGLVPRGSHMASSKDPTRFPIGCSPQVLKTQPGLAVKLYSYGHPVPGCSYITYQYPDFPRSGYKKERKLADITGVNGKIDIDLKPNDPCRVLTGHLPSNYNYPDTLTYTNFTMILYGYFQPKVTGYHTFNLEADDLLFMNLGAGNAFDCCKAESTLDNFGNYQSYSLWGSDYAKANITVFLVSGVYYPIRLFYVNRDNNAVIDFSFTTEFDKEKVHDFTSYFFSASDGEQCPGSV,glycan array binding signal (z-score),[1],-0.185
same,glycan array binding signal (z-score),[2],-0.876
same,glycan array binding signal (z-score),[3],-0.768
same,glycan array binding signal (z-score),[4],-0.869
same,glycan array binding signal (z-score),[5],1.19
same,glycan array binding signal (z-score),[6],0.137
same,glycan array binding signal (z-score),[7],-0.545
same,glycan array binding signal (z-score),[8],-0.28
same,glycan array binding signal (z-score),[9],-0.825
same,glycan array binding signal (z-score),[10],-0.441
same,glycan array binding signal (z-score),[11],-0.068
same,glycan array binding signal (z-score),[12],-0.211
same,glycan array binding signal (z-score),[13],-0.142
same,glycan array binding signal (z-score),[14],0.781
same,glycan array binding signal (z-score),[15],-1.28
same,glycan array binding signal (z-score),[16],-0.007
same,glycan array binding signal (z-score),[17],0.827
same,glycan array binding signal (z-score),[18],-0.801
same,glycan array binding signal (z-score),[19],-0.148
same,glycan array binding signal (z-score),[20],-1.09
same,glycan array binding signal (z-score),[21],-0.227
same,glycan array binding signal (z-score),[22],-1.3
same,glycan array binding signal (z-score),[23],1.24
same,glycan array binding signal (z-score),[24],0.355
same,glycan array binding signal (z-score),[25],3.53
same,glycan array binding signal (z-score),[26],-0.618
same,glycan array binding signal (z-score),[27],0.576
same,glycan array binding signal (z-score),[28],-0.419
same,glycan array binding signal (z-score),[29],0.107
same,glycan array binding signal (z-score),[30],-0.192
same,glycan array binding signal (z-score),[31],-0.421
same,glycan array binding signal (z-score),[32],0.76
same,glycan array binding signal (z-score),[33],-0.431
same,glycan array binding signal (z-score),[34],-0.036
same,glycan array binding signal (z-score),[35],-0.198
same,glycan array binding signal (z-score),[36],-0.465
same,glycan array binding signal (z-score),[37],-0.683
same,glycan array binding signal (z-score),[38],0.451

# 2 entries drawn at random from the list so far:
binder,measurement,setting,value
Epa19 (Candida glabrata) (protein) MGSSHHHHHHSSGLVPRGSHMASSKDPTRFPIGCSPQVLKTQPGLAVKLYSYGHPVPGCSYITYQYPDFPRSGYKKERKLADITGVNGKIDIDLKPNDPCRVLTGHLPSNYNYPDTLTYTNFTMILYGYFQPKVTGYHTFNLEADDLLFMNLGAGNAFDCCKAESTLDNFGNYQSYSLWGSDYAKANITVFLVSGVYYPIRLFYVNRDNNAVIDFSFTTEFDKEKVHDFTSYFFSASDGEQCPGSV,glycan array binding signal (z-score),[30],-0.192
same,glycan array binding signal (z-score),[1],-0.185
